Reference: PubChem BioAssay AID1508615 (Milbrandt Lab, Department of Genetics, Washington …, 2020)
Among all 1,600 compounds or so, about 20 (1%) were called active.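 The calls were made as follows: active = ratio of uncleaved NAD to its breakdown product ADP-ribose above 4, meaning the enzyme was inhibited; inactive = the rest.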 Some of the results follow.

Sequences of proteins named here, by UniProt entry; tags and fusion partners are left off. A change or cut given only in a name is not applied to a line headed by its entry.
UniProt Q6SZW1: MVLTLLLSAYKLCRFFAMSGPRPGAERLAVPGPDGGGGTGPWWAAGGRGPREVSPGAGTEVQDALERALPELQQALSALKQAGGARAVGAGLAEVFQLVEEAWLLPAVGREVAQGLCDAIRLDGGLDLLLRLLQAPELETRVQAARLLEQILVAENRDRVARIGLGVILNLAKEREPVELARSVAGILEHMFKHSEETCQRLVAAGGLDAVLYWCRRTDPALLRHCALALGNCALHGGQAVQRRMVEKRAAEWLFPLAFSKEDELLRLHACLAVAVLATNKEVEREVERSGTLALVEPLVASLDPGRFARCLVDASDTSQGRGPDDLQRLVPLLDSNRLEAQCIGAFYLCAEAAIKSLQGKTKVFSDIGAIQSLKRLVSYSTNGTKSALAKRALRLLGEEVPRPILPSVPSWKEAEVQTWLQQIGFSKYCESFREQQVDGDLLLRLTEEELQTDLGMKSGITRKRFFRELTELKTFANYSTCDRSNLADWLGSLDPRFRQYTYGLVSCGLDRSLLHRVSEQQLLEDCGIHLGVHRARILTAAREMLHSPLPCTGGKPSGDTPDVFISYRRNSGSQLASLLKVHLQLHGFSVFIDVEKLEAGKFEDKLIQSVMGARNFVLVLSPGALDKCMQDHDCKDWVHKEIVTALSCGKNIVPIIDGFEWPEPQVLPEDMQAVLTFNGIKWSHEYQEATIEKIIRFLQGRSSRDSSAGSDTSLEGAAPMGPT

Molecular target: NAD(+) hydrolase SARM1 (Homo sapiens) (UniProt Q6SZW1)
Assay: inhibition of SAM-TIR NAD hydrolysis to ADPR – cell lysate, HPLC readout, primary screen (AID 1508615);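 also: substrate NAD at 5 µM with 60 min at 37 °C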
Details: HEK293T SAM-TIR lysate, NAD/ADPR ratio by HPLC; at 5 µM; hits give high values

Compound	NAD/ADPR ratio
C=C(C)CN=CC1(C)CCC(C)=CO1 (centres undefined)	inactive: 3
O=C1OCC/C1=C\c1ccc(O)cc1	inactive: 3
O=C(Cn1ccc(=O)[nH]c1=O)Nc1ccc(C(=O)O)c(O)c1	inactive: 3
c1ccc2sc(SCSc3nc4ccccc4s3)nc2c1	inactive: 3
O=S1(=O)CCC(N(/N=C/c2ccco2)c2ccccc2)C1 (centres undefined)	inactive: 3
CCCNC(=O)Nc1ccc(C)cc1C	inactive: 3
S=c1[nH]c2cc(-c3ccccc3)ccc2o1	inactive: 3
COc1ccc(C(=S)N2CCN(c3cccc(Cl)c3)CC2)cc1	inactive: 3
C/C(=N\O)C1CC(CC(=O)O)C1(C)C (centres undefined)	inactive: 3
CCOC(=O)c1nnsc1-c1ccc(-c2snnc2C(=O)OCC)cc1	inactive: 3
CNC(=O)Nc1ccc(S(N)(=O)=O)cc1	inactive: 3
O=C(Oc1ccc[nH]c1=O)c1cccc(Cl)c1	inactive: 3
Cc1ccc2nc(Cl)cc(=O)n2c1	inactive: 3
C(=C\c1ccc(/C=C/c2ccccc2)nn1)/c1ccccc1	inactive: 3
O=C(O)c1ccc2c(c1Nc1ccccc1)C(=O)c1ccccc1C2=O	inactive: 3
CSc1nc(=O)[nH]nc1Sc1ccccc1	inactive: 3
COC(=O)c1c(-c2ccccc2)[nH]c(-c2nccc3ccccc23)c1C(=O)OC	inactive: 3
Cn1c(=O)c2c(nc(Cc3ccccc3)n2C)n(C)c1=O	inactive: 3
O=C1c2ccccc2C(=O)c2[nH]cnc21	inactive: 3
COC(=O)c1ccc(C(=O)OC)c(=O)[nH]1	inactive: 3
Cc1cc(=O)c2c(C)ccc(C)c2[nH]1	inactive: 3
Cc1cccc(Nc2sc(C(=O)c3cc4cc(Cl)ccc4o3)c(N)c2C#N)c1	inactive: 3
Cc1ccc(NC(=O)Nc2c(Cl)cccc2Cl)cn1	inactive: 3
N#CC1=C(Nc2ccccc2Cl)SC(c2ccccc2O)NC1=O (centres undefined)	inactive: 3

Of the compounds above, 3 contain two or more sulfur atoms:
Compound	NAD/ADPR ratio
c1ccc2sc(SCSc3nc4ccccc4s3)nc2c1	inactive: 3
CCOC(=O)c1nnsc1-c1ccc(-c2snnc2C(=O)OCC)cc1	inactive: 3
CSc1nc(=O)[nH]nc1Sc1ccccc1	inactive: 3

Gathered by group, the compounds so far containing four or more nitrogen atoms
Compound	NAD/ADPR ratio
CCOC(=O)c1nnsc1-c1ccc(-c2snnc2C(=O)OCC)cc1	inactive: 3
Cn1c(=O)c2c(nc(Cc3ccccc3)n2C)n(C)c1=O	inactive: 3

(further entries)

Compound	NAD/ADPR ratio
CC1CCC(C(C)C)C(NC(=O)c2ccncc2)C1 (centres undefined)	inactive: 3
CN(C)S(=O)(=O)Nc1cccc(Br)c1	inactive: 3
CN(C)S(=O)(=O)Nc1ccccn1	inactive: 3
COc1ccccc1/C=C/C(=O)/C=C/c1ccccc1O	inactive: 3
Cc1nc2cc[nH]n2c(=O)c1CCc1ccccc1	inactive: 3
CC(=O)[C@H]1CC[C@H]2[C@@H]3CCC4=CC(=O)C=C[C@]4(C)[C@H]3C(=O)C[C@]12C	inactive: 3
COC(=O)Cc1[nH]c(=S)[nH]c1C(=O)OC	inactive: 3
COCCn1c2nc(=O)n(-c3ccccc3)c(=O)c-2nc2ccccc21	inactive: 3
C=CCNC(=S)NCC=C	inactive: 3
O=C1C2C3C=CC(CC3)C2S(=O)(=O)C2C3C=CC(CC3)C12 (centres undefined)	inactive: 3
Cc1cccc(NC(=S)Nc2cccc(C)n2)n1	inactive: 3
Cn1cnc([N+](=O)[O-])c1Sc1ncn[nH]1	inactive: 3
CCSc1nc(O)cc(=O)[nH]1	inactive: 3
Oc1ccc(Nc2ccnc3cc(Cl)ccc23)cc1	inactive: 3
Cc1ccc(NC(=O)N2CCCCC2)cc1NC(=O)N1CCCCC1	inactive: 3
CCOC(=O)N1C/C(=C\c2ccccc2)C(=O)/C(=C/c2ccccc2)C1	inactive: 3
OC(c1cc(C(F)(F)F)nc2c(Cl)cc(Cl)cc12)C1CCCCN1 (centres undefined)	inactive: 3
COc1cnc(SC)nc1Nc1ccc(C#N)cc1	inactive: 3
O=C(Nc1ccc(Oc2ccc(NC(=O)Nc3ccc([N+](=O)[O-])cc3)cc2)cc1)Nc1ccc([N+](=O)[O-])cc1	inactive: 3
NC(N)=NCCCS(=O)(=O)Nc1ccc(Nc2c3ccccc3nc3cc([N+](=O)[O-])ccc23)cc1	inactive: 3
O=c1c2ccccc2ncn1-c1ccc(Cl)cc1	inactive: 3
S=C1NC2(CCCCCC2)NN1c1ccccc1	inactive: 3
Fc1ccc(-c2cc(-c3cccs3)cc(-c3ccccc3)n2)cc1	inactive: 3
CCOc1nc(OCC)c2cnn(C)c2n1	inactive: 3

Compound	NAD/ADPR ratio
Oc1cc(CNC2CCCCC2)c(O)cc1CNC1CCCCC1	active: 10.8
NC(=O)c1ccc(N=Nc2c(O)c3ccccc3[nH]c2=O)cc1	inactive: 3
CCc1c(N=O)c(-c2ccccc2)n(O)[n+]1[O-]	inactive: 3
Nc1cc([N+](=O)[O-])ccc1N1C(=O)CCCC1=O	inactive: 3
COC1OC(O)C(NC(=O)C(F)(F)F)CC1O (centres undefined)	inactive: 3
O=C(Nc1ccc(C(=O)O)c(O)c1)c1ccccc1	inactive: 3
Cc1nc2[nH]c(=O)n(O)c(=O)c2s1	inactive: 3
S=c1nc[nH]c2c1ncn2C1CCCO1 (centres undefined)	inactive: 3
Cc1ccccc1OCC(O)CN1CCN(c2ccc(Cl)cc2)CC1 (centres undefined)	inactive: 3
CC(=O)OCCn1c2nc(=O)[nH]c(=O)c-2nc2cc(C)c(C)cc21	inactive: 3
Cn1cnc2ncnn2c1=S	inactive: 3
COc1cc(NCc2ccccc2O)c2ncccc2c1	inactive: 3
O=C(/C=C/c1cccnc1)/C=C/c1cccnc1	inactive: 3
N#Cc1cnn(-c2cccc(Cl)c2)c1-n1cccc1	inactive: 3
COc1cc(CCC(=O)O)on1	inactive: 3
CC1=NN(c2ccccc2)C(=O)C1C(=S)SC1CC(=O)NC1=O (centres undefined)	inactive: 3
Nc1ccc(NC(=O)c2ccc(C(=O)Nc3ccc(N)cc3)cc2)cc1	inactive: 3
CCOP(=O)(OCC)/C(C#N)=C/c1c[nH]c2ccccc12	inactive: 3
S=C(Sc1ccc(Cl)cc1)Sc1ccc(Cl)cc1	inactive: 3
O=c1[nH]c2ccccc2n1C1=CCNCC1	inactive: 3
Cn1c(=O)c2[nH]c(CCCc3ccc([N+](=O)[O-])cc3)nc2n(C)c1=O	inactive: 3
Cn1c2c(sc1=O)CCC2	inactive: 3
Oc1c(N=Nc2nn[nH]n2)ccc2ccccc12	inactive: 3
COc1ccc2nc(-c3ccc(Cl)cc3)cc(C(=O)O)c2c1	inactive: 3

Compound	NAD/ADPR ratio
CCCC1OC(c2cc3c(cc2Cl)OCO3)OCC1CC (centres undefined)	inactive: 3
N#Cc1c(N)nc(N)nc1Nc1ccc(Br)cc1	inactive: 3
CCCCSc1cc(=O)[nH]c(N)n1	inactive: 3
CC(=O)Nc1cccc(NC(C)=O)n1	inactive: 3
O=C1c2ccccc2C(O)(c2ccccc2)N1c1ccncc1 (centres undefined)	inactive: 3
NC(=O)c1cc(Br)cc(C2CCCCC2)c1O	inactive: 3
CCOC(=O)CCC1(C(=O)OC)C(=O)CCCCC/C=C/1C(=O)OC (centres undefined)	inactive: 3
O=C1c2ccccc2NC(c2cc(Cl)cc(Cl)c2O)N1CCc1ccccn1 (centres undefined)	inactive: 3
Nc1ccc2c(c1)N=[N+]([O-])c1cc(N)ccc1C2	inactive: 3
CSc1cccc(NC(=O)OC2CCCCCCCCCCC2)c1	inactive: 3
Cc1nc(-c2ccccc2)c(Cc2ccccc2O)c(=O)[nH]1	inactive: 3
CN(NC(=O)C(=O)NCc1ccco1)C(=O)NC1CCCCC1	inactive: 3
Cc1cc(N)c2cc(NC(=O)/C=C/c3ccccc3Cl)ccc2n1	inactive: 3
O=C(O)c1cc(Cl)n[nH]c1=O	inactive: 3
O=C1C(Cl)=C(NCCc2ccccc2)C(=O)c2ccccc21	inactive: 3
O=C(O)c1ccc(OCCOc2ccccc2)cc1	inactive: 3
CNc1nc(SC)n(C)c(=O)c1N=O	inactive: 3
COc1ccc(Br)c2c1C(=O)CC2	inactive: 3
CC(C)c1cc(C(C)C)n2nc(N)nc2n1	inactive: 3
CO/N=C1/C=C(C)C(=O)C(C)=C1C	inactive: 3
NC(=O)C1=C[C@H]2[C@H]3C=C[C@@]2(O)C(=O)O[C@@H]3O1	inactive: 3
Cc1nc(Br)c(Br)c(C)c1Br	inactive: 3
O=C(O)C(=O)Nc1ncn[nH]1	inactive: 3
O=c1[nH]cnc(CN2CCCCC2)c1O	inactive: 3

Compound	NAD/ADPR ratio
c1ccc(CSc2nnc3c4ccccc4c4ccccc4c3n2)cc1	inactive: 3
OC1(Cc2ccccc2)CCNCC1	inactive: 3
Cc1cccnc1NC(=O)c1csnn1	inactive: 3
CN1CCC=C(C(=O)N2c3ccccc3Sc3ccc(Cl)cc32)C1	inactive: 3
CC(C)(C)NC(=S)NC(C)(C)C	inactive: 3
NC(=O)Nc1n[nH]c(-c2ccccc2)n1	inactive: 3
CC1=CC(=O)CC(C)(C)C1(O)/C=C/C(C)=C/C(=O)O (centres undefined)	inactive: 3
N#C/C(=C\c1cc(O)c(O)c(O)c1)C(N)=O	inactive: 3
Cc1cccc(NC2=C(C#N)C(=O)NC3(CCCC3)S2)c1	inactive: 3
Clc1nc(Cl)nc(-c2cn(-c3ccccc3)c3ccccc23)n1	inactive: 3
c1ccc(-c2nc(-c3ccccn3)nc(-c3ccccn3)n2)nc1	inactive: 3
Nc1ccc(Cn2ccc3c4c(N)nc(N)nc4ccc32)cc1	inactive: 3
Brc1ccc(N=Nc2ccc3ccccc3n2)cc1	inactive: 3
O=C(COc1cc(Cl)c(Cl)cc1Cl)Nc1ccc([N+](=O)[O-])cc1Cl	inactive: 3
CCCNC(=O)c1ccc(S(N)(=O)=O)cc1	inactive: 3
Cc1ccc(Cl)cc1NC(=O)N(C)CCO	inactive: 3
Cn1ccc(=Nc2ccc(NC(=O)c3ccc(N=c4ccn(C)c5ccc([N+](=O)[O-])cc45)cc3)cc2)cc1	inactive: 3
NC(=O)/C(=C\c1ccncc1)c1cccc2ccccc12	inactive: 3
CCOC(=O)Cc1c[nH]c(=S)[nH]c1=O	inactive: 3
O=C1c2cccc(Sc3ccccc3)c2C(=O)c2c(Sc3ccccc3)cccc21	inactive: 3
Cc1cc(=O)[nH]c(N/N=C2/CCCCC2C)n1 (centres undefined)	inactive: 3
CC1=CC2=C(C=O)C(=O)[C@](C)(O)[C@@H](O)C2=CO1	inactive: 3
O=C(OCC1CCC=CO1)C1CCC=CO1 (centres undefined)	inactive: 3
